Holding throughout (details): stereoisomer not certain
One assay addresses T1, OR10K1 (Homo sapiens) (UniProt Q8NGX5).
T1 sequence (whole entry): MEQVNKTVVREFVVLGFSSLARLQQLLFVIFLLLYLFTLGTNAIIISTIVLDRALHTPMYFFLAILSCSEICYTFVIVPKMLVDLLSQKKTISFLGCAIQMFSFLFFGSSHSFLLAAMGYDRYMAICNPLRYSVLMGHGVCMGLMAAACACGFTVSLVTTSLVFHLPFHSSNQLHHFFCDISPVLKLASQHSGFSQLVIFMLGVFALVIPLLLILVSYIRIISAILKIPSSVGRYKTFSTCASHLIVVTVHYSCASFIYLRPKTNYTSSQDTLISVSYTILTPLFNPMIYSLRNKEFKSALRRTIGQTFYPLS
The method in brief:
(§1)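 Each receptor–molecule pair is labelled responsive or non-responsive (inactive) according to whether the original authors judged the measured signal statistically different from baseline. The data were taken from the main text and supplementary material of published papers and checked for typos and inconsistencies. Assay methods differed by source, with transient luciferase assays in mammalian cell lines being common.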

Another assay has as its target T2, OR10K2 (Homo sapiens) (UniProt Q6IF99).
T2 sequence (whole entry): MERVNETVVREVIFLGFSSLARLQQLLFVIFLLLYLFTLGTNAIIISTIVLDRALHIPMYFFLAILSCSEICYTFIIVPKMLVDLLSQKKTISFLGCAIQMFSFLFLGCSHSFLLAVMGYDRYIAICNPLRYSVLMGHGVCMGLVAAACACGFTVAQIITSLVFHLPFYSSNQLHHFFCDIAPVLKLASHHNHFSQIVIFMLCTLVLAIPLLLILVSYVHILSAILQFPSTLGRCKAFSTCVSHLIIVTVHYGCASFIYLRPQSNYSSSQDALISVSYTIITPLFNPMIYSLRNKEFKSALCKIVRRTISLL
A digest of the protocol: as §1

Another assay concerns the target T3, OR10T2 (Homo sapiens) (UniProt Q8NGX3).
T3 sequence (whole entry): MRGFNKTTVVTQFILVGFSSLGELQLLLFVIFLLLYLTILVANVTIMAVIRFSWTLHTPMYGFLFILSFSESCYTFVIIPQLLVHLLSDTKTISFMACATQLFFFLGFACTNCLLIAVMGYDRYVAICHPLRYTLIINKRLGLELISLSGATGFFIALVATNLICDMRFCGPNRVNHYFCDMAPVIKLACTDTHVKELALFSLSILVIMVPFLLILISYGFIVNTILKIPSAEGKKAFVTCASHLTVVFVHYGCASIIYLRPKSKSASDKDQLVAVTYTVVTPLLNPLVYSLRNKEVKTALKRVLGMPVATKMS
A digest of the protocol: as §1

For another assay, the target named is T4, OR10X1 (Homo sapiens) (UniProt Q8NGY0).
T4 sequence (whole entry): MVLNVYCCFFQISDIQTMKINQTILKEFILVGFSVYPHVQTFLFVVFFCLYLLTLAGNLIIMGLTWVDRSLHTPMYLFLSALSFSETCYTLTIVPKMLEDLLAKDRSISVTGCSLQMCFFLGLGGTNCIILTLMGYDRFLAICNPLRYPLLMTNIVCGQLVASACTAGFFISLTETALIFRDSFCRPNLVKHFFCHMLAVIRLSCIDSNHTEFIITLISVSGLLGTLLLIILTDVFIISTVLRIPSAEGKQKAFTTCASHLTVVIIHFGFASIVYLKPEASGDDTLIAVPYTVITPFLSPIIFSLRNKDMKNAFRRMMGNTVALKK
The method in brief: as §1

A further assay addresses T5, OR10Z1 (Homo sapiens) (UniProt Q8NGY1).
T5 sequence (whole entry): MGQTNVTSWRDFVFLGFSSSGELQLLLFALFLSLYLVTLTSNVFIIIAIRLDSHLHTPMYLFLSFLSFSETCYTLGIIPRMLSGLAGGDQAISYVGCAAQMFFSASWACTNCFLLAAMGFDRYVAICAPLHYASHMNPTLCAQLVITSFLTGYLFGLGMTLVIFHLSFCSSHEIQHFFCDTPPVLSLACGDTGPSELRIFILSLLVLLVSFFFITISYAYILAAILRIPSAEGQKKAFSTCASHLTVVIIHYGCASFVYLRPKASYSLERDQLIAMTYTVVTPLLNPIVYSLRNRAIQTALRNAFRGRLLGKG
The method in brief:
as §1

A further assay concerns the target T6, OR11A1 (Homo sapiens) (UniProt Q9GZK7).
T6 sequence (whole entry): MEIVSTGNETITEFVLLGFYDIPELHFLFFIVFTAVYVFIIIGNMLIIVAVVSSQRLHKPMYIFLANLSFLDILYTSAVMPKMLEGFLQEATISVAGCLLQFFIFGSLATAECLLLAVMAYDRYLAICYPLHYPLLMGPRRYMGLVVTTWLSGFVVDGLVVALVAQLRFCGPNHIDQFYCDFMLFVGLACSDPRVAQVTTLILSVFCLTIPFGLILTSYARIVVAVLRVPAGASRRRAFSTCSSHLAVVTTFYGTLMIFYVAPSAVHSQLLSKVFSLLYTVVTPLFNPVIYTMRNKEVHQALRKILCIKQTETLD
A digest of the protocol: as §1

The target in the next assay is T7, OR11H4 (Homo sapiens) (UniProt Q8NGC9).
T7 sequence (whole entry): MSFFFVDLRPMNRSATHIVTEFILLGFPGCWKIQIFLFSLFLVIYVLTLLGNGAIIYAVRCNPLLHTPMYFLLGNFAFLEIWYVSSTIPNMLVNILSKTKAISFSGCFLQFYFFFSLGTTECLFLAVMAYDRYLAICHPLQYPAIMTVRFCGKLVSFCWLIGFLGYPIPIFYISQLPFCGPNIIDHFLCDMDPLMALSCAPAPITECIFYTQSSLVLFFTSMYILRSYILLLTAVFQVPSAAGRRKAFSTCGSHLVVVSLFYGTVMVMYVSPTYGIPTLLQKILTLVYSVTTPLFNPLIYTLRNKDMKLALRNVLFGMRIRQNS
A digest of the protocol: as §1

The target of another assay is T8, OR11H6 (Homo sapiens) (UniProt Q8NGC7).
T8 sequence (whole entry): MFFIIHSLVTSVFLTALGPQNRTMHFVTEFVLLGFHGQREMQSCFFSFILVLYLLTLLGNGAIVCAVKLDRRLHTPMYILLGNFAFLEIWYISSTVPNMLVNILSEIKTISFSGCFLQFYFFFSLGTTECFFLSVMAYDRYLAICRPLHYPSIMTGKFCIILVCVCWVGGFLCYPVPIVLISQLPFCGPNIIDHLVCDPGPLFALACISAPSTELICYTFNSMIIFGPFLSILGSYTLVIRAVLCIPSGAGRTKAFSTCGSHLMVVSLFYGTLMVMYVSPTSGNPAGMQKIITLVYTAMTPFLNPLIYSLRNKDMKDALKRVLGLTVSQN
A digest of the protocol: as §1

For another assay, the target named is T9, OR12D2 (Homo sapiens) (UniProt P58182).
T9 sequence (whole entry): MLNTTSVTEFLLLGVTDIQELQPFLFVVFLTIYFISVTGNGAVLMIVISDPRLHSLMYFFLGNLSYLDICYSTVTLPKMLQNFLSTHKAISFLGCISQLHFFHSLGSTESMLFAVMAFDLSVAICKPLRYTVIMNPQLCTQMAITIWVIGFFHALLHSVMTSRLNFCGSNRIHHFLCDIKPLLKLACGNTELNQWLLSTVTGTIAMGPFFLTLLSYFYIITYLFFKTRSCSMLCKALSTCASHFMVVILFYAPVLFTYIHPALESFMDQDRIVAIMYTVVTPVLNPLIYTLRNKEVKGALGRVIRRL
The method in brief: as §1

Another assay concerns the target T10, OR12D3 (Homo sapiens) (UniProt Q9UGF7).
T10 sequence (whole entry): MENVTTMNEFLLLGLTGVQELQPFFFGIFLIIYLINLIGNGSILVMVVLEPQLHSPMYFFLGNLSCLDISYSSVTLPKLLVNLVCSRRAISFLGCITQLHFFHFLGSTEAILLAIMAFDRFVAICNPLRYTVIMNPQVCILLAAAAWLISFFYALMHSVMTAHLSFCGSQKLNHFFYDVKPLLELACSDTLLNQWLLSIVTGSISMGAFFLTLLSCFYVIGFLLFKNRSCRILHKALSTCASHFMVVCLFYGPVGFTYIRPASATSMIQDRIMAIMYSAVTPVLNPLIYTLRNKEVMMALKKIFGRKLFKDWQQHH
The method in brief:
as §1

Another assay has as its target T11, OR13A1 (Homo sapiens) (UniProt Q8NGR1).
T11 sequence (whole entry): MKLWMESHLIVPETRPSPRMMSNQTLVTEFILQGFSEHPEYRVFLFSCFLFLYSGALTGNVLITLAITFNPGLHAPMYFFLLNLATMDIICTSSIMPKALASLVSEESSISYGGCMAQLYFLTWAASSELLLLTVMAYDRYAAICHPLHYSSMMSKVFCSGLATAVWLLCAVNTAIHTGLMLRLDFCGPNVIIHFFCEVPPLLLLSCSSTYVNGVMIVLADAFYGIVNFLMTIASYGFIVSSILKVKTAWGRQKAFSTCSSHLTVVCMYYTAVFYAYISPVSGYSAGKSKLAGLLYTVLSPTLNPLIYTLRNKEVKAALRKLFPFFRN
A digest of the protocol:
as §1

The target of another assay is T12, OR10S1 (Homo sapiens) (UniProt Q8NGN2).
T12 sequence (whole entry): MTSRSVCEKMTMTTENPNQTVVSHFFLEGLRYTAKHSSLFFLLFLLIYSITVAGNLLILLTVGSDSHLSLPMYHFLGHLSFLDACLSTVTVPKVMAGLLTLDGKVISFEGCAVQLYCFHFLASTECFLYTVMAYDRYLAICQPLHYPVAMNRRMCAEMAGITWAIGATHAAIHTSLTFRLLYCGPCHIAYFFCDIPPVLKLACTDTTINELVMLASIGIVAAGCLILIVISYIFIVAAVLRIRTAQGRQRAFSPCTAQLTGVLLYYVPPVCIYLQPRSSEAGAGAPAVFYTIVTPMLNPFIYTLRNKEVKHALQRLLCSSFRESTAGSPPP
The method in brief: as §1

Each structure is given as a SMILES string. Only a part is listed here, and it is no random draw. Calls are pooled over several reports, among them a noisy single-well screen. This is one part of the list.

For `O=C1CCCCCCCCCCCCCCO1`, the “odorant receptor agonist call” value with OR10K1 (Homo sapiens), with OR10K2 (Homo sapiens), with OR10T2 (Homo sapiens), with OR10X1 (Homo sapiens), with OR10Z1 (Homo sapiens) and with OR11A1 (Homo sapiens) was “inactive” throughout. Moreover, the “odorant receptor agonist call” value with OR11H4 (Homo sapiens), in the assay with OR11H6 (Homo sapiens), with OR12D2 (Homo sapiens), in the assay with OR12D3 (Homo sapiens) and with OR13A1 (Homo sapiens) was “inactive” in each case.
For `CC(C)(C)c1ccc(CCC=O)cc1`, the “odorant receptor agonist call” value with OR10K1 (Homo sapiens), with OR10K2 (Homo sapiens), with OR10T2 (Homo sapiens), with OR10X1 (Homo sapiens), with OR10Z1 (Homo sapiens) and with OR11A1 (Homo sapiens) was “inactive” each time. In addition, the “odorant receptor agonist call” value with OR11H4 (Homo sapiens), with OR11H6 (Homo sapiens), in the assay with OR12D2 (Homo sapiens), in the assay with OR12D3 (Homo sapiens) and in the assay with OR13A1 (Homo sapiens) was “inactive” throughout.
As for `CCCCCCOC(=O)CCC`, the “odorant receptor agonist call” value with OR10K1 (Homo sapiens), with OR10K2 (Homo sapiens), with OR10T2 (Homo sapiens), with OR10X1 (Homo sapiens), with OR10Z1 (Homo sapiens) and with OR11A1 (Homo sapiens) was “inactive” throughout. Besides, the “odorant receptor agonist call” value with OR11H4 (Homo sapiens), in the assay with OR11H6 (Homo sapiens), with OR12D2 (Homo sapiens), with OR12D3 (Homo sapiens) and in the assay with OR13A1 (Homo sapiens) was “inactive” each time.
Consider `C=CCSCC=C`, for which the “odorant receptor agonist call” value in the assay with OR10K1 (Homo sapiens), with OR10K2 (Homo sapiens), with OR10T2 (Homo sapiens), in the assay with OR10X1 (Homo sapiens), with OR10Z1 (Homo sapiens) and with OR11A1 (Homo sapiens) was “inactive” throughout. Besides, the “odorant receptor agonist call” value with OR11H4 (Homo sapiens), in the assay with OR11H6 (Homo sapiens), in the assay with OR12D2 (Homo sapiens), in the assay with OR12D3 (Homo sapiens) and with OR13A1 (Homo sapiens) was “inactive” each time.
As to `CCCCCCCCC=O`, in the assay with OR10S1 (Homo sapiens), the “odorant receptor agonist call” value is “active”.
As for `CC1=CCC(C(C)(C)O)CC1` (configuration not stated), the “odorant receptor agonist call” value in the assay with OR10K1 (Homo sapiens), with OR10K2 (Homo sapiens), with OR10T2 (Homo sapiens), with OR10X1 (Homo sapiens), in the assay with OR10Z1 (Homo sapiens) and in the assay with OR11A1 (Homo sapiens) was “inactive” in each case. In addition, the “odorant receptor agonist call” value with OR11H4 (Homo sapiens), with OR11H6 (Homo sapiens), with OR12D2 (Homo sapiens), in the assay with OR12D3 (Homo sapiens) and in the assay with OR13A1 (Homo sapiens) was “inactive” throughout.
On to `CC12C=CCC1C1CCC3=CC(=O)CCC3(C)C1CC2` (configuration not stated), for which the “odorant receptor agonist call” value in the assay with OR10K1 (Homo sapiens), in the assay with OR10K2 (Homo sapiens), with OR10T2 (Homo sapiens), in the assay with OR10X1 (Homo sapiens), in the assay with OR10Z1 (Homo sapiens) and with OR11H4 (Homo sapiens) was “inactive” in each case. The “odorant receptor agonist call” value in the assay with OR11H6 (Homo sapiens), with OR12D2 (Homo sapiens), with OR12D3 (Homo sapiens) and with OR13A1 (Homo sapiens) was “inactive” in each case. In addition, the “odorant receptor agonist call” value with OR11A1 (Homo sapiens) was “active”.

(Values after the M2OR odorant receptor database.)
